Experimental data taken from publication PMC3192180.
Results are given in words; binding and its absence hold for the method and conditions named.

Amino acid sequences for entries named in this document (tags omitted). Residues count along the entry.
UniProt P60615, residues 22-95: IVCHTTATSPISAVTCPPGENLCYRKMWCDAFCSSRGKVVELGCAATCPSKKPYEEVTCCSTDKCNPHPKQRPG

Target: T1, wild type KV10.1 (UniProt O95259)
T1 sequence: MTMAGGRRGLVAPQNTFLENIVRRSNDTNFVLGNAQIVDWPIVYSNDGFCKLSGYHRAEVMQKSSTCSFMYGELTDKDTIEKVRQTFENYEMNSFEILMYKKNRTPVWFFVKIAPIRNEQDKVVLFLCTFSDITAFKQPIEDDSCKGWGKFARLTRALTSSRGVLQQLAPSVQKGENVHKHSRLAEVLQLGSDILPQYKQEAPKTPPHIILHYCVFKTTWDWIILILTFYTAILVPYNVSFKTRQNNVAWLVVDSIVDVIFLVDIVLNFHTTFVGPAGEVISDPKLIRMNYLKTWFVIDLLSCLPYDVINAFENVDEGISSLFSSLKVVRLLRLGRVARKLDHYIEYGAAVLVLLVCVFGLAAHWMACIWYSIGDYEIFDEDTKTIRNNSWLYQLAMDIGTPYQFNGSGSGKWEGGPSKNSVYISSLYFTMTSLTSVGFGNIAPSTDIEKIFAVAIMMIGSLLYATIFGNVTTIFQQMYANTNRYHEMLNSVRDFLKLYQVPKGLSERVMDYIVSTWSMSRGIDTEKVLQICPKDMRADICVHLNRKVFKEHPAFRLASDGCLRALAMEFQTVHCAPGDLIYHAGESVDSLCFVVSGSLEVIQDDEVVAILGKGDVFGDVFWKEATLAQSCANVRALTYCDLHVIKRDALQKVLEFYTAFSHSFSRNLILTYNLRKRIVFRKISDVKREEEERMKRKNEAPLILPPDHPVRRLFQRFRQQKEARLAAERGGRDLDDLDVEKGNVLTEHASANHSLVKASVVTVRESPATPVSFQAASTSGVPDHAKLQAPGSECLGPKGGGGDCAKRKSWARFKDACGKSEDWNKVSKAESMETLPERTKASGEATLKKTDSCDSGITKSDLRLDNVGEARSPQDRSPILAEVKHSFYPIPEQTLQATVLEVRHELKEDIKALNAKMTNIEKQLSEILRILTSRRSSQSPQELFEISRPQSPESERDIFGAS
Test: cellular uptake of biotinylated toxin, blot with streptavidin-peroxidase; only the binder purified

“α-bungarotoxin-biotin (from UniProt P60615 22-95)” was tested, and the binding was “no binding (tested: 0.15 µM)”.
